Drawing on US20110158908A1, “CYCLOSPORIN A-BINDING PROTEIN” (Sapporo Medical University, priority 2007, published 2011), this text covers binding for one molecule.

In assay [1] the target is NS5B (HCV-derived, RNA-dependent RNA polymerase) (HCV). Description: GST pull-down (recap of the in vitro experiment).
Assay [2] shares this target. Briefly: GST pull-down of 35S-labelled in vitro synthesized NS5B with GST-CSABP on glutathione Sepharose, CsA added to the co-culture, SDS-PAGE, autoradiography.
The target of a further assay is NS4B (hepatitis C virus). Description: GST pull-down of 35S-labelled in vitro synthesized protein with GST-CSABP on glutathione Sepharose, SDS-PAGE, autoradiography.
Another assay addresses NS5A (hepatitis C virus). The assay is described as above.
For the next assay, the target named is NS3 (hepatitis C virus). The assay is described as above.
The target of assay [3] is NS5B (HCV-derived, RNA-dependent RNA polymerase) (HCV). Briefly: GST pull-down with various in vitro synthesized NS5B fragments.
For assay [4] the target is unchanged. Briefly: GST pull-down with glutathione Sepharose, 35S-labeled in vitro synthesized protein, autoradiography.

Results are given in words; binding and its absence hold for the method and conditions named. For some of these results: Binding calls can cover weak binding; strength is not graded here. Where a sequence is shown, tags or fusion partners need not be part of it.

B1: CSABP-GST fusion protein (protein, not shown: a dimerising Fc or GST)
chain: MSRPSSVSPRQPAPGGGGGGGPSPCGPGGGGRAKGLKDIRIDEEVKIAVNIALERFRYGDQREMEFPSSLTSTERAFIHRLSQSLGLVSKSKGKGANRYLTVKKKDGSETAHAMMTCNLTHNTKHAVRSLIQRFPVTNKERTELLPKTERGNVFAVEAENREMSKTSGRLNNGIPQIPVKRGESEFDSFRQSLPVFEKQEEIVKIIKENKVVLIVGETGSGKTTQIPQFLLDDCFKNGIPCRIFCTQPRRLAAIAVAERVAAERRERIGQTIGYQIRLESRVSPKTLLTFCTNGVLLRTLMAGDSTLSTVTHVIVDEVHERDRFSDFLLTKLRDLLQKHPTLKLILSSAALDVNLFIRYFGSCPVIYIQGRPFEVKEMFLEDILRTTGYTNKEMLKYKKEKQQEEKQQTTLTEWYSAQENSFKPESQRQRTVLNVTDEYDLLDDGGDAVFSQLTEKDVNCLEPWLIKEMDACLSDIWLHKDIDAFAQVFHLILTENVSVDYRHSETSATALMVAAGRGFASQVEQLISMGANVHSKASNGWMALDWAKHFGQTEIVDLLESYSASLEFGNLDESSLVQTNGSDLSAEDRELLKAYHHSFDDEKVDLDLIMHLLYNICHSCDAGAVLIFLPGYDEIVGLRDRILFDDKRFADNTHRYQVFMLHSNMQTSDQKKVLKNPPAGVRKIILSTNIAETSITVNDVVFVIDSGKVKEKSFDALNFVTMLKMVWISKASAIQRKGRAGRCRPGICFRLFSRLRFQNMLEFQTPELLRMPLQELCLHTKLLAPVNCPIADFLMKAPEPPPALIVRNAVQMLKTIDAMDTWEDLTELGYHLADLPVEPHLGKMVLCAVVLKCLDPILTIACTLAYRDPFVLPTQASQKRAAMLCRKRFTAGAFSDHMALLRAFQAWQKARSDGWERAFCEKNFLSQATMEIIIGMRTQLLGQLRASGFVRARGGGDIRDVNTNSENWAVVKAALVAGMYPNLVHVDRENLVLTGPKEKKVRFHPASVLSQPQYKKIPPANGQAAAIKALPTDWLIYDEMTRAHRIANIRCCSAVTPVTILVFCGPARLASNALQEPSSFRVDGIPNDSSDSEMEDKTTANLAALKLDEWLHFTLEPEAASLLLQLRQKWHSLFLRRMRAPSKPWSQVDEATIRAIIAVLSTEEQSAGLQQPSGIGQRPRPMSSEELPLASSWRSNNSRKSSADTEFSDECTTAERVLMKSPSPALHPPQKYKDRGILHPKRGTEDRSDQSSLKSTDSSSYPSPCASPSPPSSGKGSKSPSPRPNMPVRYFIMKSSNLRNLEISQQKGIWSTTPSNERKLNRAFWESSIVYLVFSVQGSGHFQGFSRMSSEIGREKSQDWGSAGLGGVFKVEWIRKESLPFQFAHHLLNPWNDNKKVQISRDGQELEPLVGEQLLQLWERLPLGEKNTTD
As for B1, the binding entry was “binds” in assay [1]; “binds” in assay [2]; “no binding” in the assay with NS4B (hepatitis C virus); “no binding” with NS5A (hepatitis C virus); “no binding” with NS3 (hepatitis C virus); “binds” in assay [3]. Moreover, the binding entry in assay [4] is reported as “binds”.
